PubChem BioAssay AID720488 (Milwaukee Institute for Drug Discovery, 2013)
The list shows a part of the results, in another mix than the full data. Activity calls are given as the source filed them.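 How the source made its calls: active means compound fluorescence over control fluorescence at most 0.8, a quencher, or at least a set upper limit, an enhancer; inactive means ratio between 0.8 and the set upper limit.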

Assay: Cy5 fluorescence quenchers or enhancers, artefact control for HCV NS3 helicase inhibitor project, biochemical, ChemBridge library, Cy5 readout (AID 720488)
Conditions: Cy5-dT15 DNA with NS3h, at 100 µM, actives lie on both sides, signal over control mean, under 1 quenches

Question: For `O=C(/C=C/c1ccccc1)Nc1cccc(F)c1`, which fluorescence interference ratio is on record?
Answer: active: 0.703

Question: With `O=C(/C=C/c1ccccc1)Nc1ccc(F)cc1` as the compound, how does the fluorescence interference ratio read?
Answer: active: 0.686
